Laboratory results reported in publication PMC5268738, “A sequential multi-target Mps1 phosphorylation cascade promotes spindle checkpoint signaling” (eLife, 2017).
Results are given in words; binding and its absence hold for the method and conditions named. Some entries that bind do so weakly or less than the wild type.

What was measured:
[1] = target: T1, human Bub1 CM phospho-peptide pS459-pT461 (human) (UniProt O43683); assay: pull-down; synthetic Bub1 phospho-peptides immobilised on SulfoLink resin; Mad1 CTD as prey; SDS-PAGE, Coomassie blue; both purified
T1 sequence (peptide, phosphoserine at 459, phosphothreonine at 461): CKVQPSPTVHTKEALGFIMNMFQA

[2] = target: T2, human Bub1 CM phospho-peptide pS459-pT461-pT464 (human) (UniProt O43683); assay: as above
T2 sequence (peptide, phosphoserine at 459, phosphothreonine at 461, phosphothreonine at 464): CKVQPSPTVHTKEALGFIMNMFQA

[3] = target: T3, human Bub1 CM phospho-peptide pT461 (human) (UniProt O43683); assay: as above
T3 sequence (peptide, phosphothreonine at 461): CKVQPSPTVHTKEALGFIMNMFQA

human Mad1^CTD (human) = target: T4, human Mad1^CTD (human) (UniProt Q9Y6D9); assay: ITC; 20°C; 25 mM HEPES pH 7.5, 50 mM NaCl; human Mad1^CTD (50 µM) in the cell; human Bub1 phospho-peptides (500 µM) injected; both purified
T4 sequence: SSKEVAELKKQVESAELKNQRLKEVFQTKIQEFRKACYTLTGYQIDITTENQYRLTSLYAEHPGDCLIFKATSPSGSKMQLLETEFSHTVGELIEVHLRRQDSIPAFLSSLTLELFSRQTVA

B1: human Mad1^CTD (domain or fragment, UniProt Q9Y6D9 597-718)
chain: SSKEVAELKKQVESAELKNQRLKEVFQTKIQEFRKACYTLTGYQIDITTENQYRLTSLYAEHPGDCLIFKATSPSGSKMQLLETEFSHTVGELIEVHLRRQDSIPAFLSSLTLELFSRQTVA
For B1, the binding [1] was “binds”, the binding [2] was “binds” and the binding [3] was “binds weakly”.

CKVQPSPTVHTKEALGFIMNMFQA (peptide, UniProt O43683 455-477, phosphoserine at 459, phosphothreonine at 461) [human Bub1 CM phospho-peptide pS459-pT461] was tested, and the binding (human Mad1^CTD (human)) was “binds”.

CKVQPSPTVHTKEALGFIMNMFQA (peptide, UniProt O43683 455-477, phosphothreonine at 461) [human Bub1 CM phospho-peptide pT461] was tested, and the binding (human Mad1^CTD (human)) was “binds”.
